Experimental data: PubChem BioAssay AID602196 (INSERM, 2012)

Test: 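Knock-downs that protect lung cancer cells from cisplatin or sensitise them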
System: human A549 lung cancer cells
Knock-down reagent: siRNA pair against human genes
Duration: 48 h transfection before cisplatin; time from cisplatin to read-out not stated
Treatment: cisplatin at a dose killing half of control-siRNA cells; exact dose and duration not given
Measured: 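Cisplatin cell death as a shift from the 50% death seen with control siRNA; siRNAs toxic or growth-blocking alone scored 0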
Reading the numbers: two-siRNA summed score (-2 to +2): higher = both siRNAs protect from cisplatin killing; -2 means both sensitise; mean protection from cisplatin (shift in death) and protection from cisplatin (shift in death), siRNA C and protection from cisplatin (shift in death), siRNA D: higher = protection from cisplatin killing
Active means: 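siRNAs harmful alone (LDH or WST-1) get 0; others get +1 for less and -1 for more cisplatin killing; genes are active when the two siRNAs give the same sign, summing to ±2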
Calls: active = both siRNAs shift cisplatin killing the same way; inactive = no consistent shift, or siRNA harmful alone
In all, the deposit lists about 23,000 reagents; this is a random part of them. 455 of them (2%) count as active. 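Active includes both protection and sensitisation; some change values fall well beyond the stated -50 to +50 range.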 Reagent sequences are not shown. The record does not give: the amount of reagent.

| gene | two-siRNA summed score (-2 to +2) | mean protection from cisplatin (shift in death) (%) | protection from cisplatin (shift in death), siRNA C (%) | protection from cisplatin (shift in death), siRNA D (%) | activity call |
| --- | --- | --- | --- | --- | --- |
| RPLP2 (ribosomal protein lateral stalk subunit P2) | 0 | 18.3 | 13.5 | 23.1 | inactive |
| ANXA4 (annexin A4) | 0 | 1.7 | 3.1 | 0.3 | inactive |
| METTL25 (methyltransferase like 25) | 0 | 4.2 | 1.7 | 6.8 | inactive |
| LOC126520 | 1 | 22.4 | 28.1 | 16.8 | inactive |
| SRRT (serrate, RNA effector molecule) | 0 | -0.9 | -5.1 | 3.3 | inactive |
| LOC388001 | 0 | 7.7 | 15.6 | -0.1 | inactive |
| NSUN6 (NOP2/Sun RNA methyltransferase 6) | 0 | 10.2 | 13.9 | 6.4 | inactive |
| TOPBP1 (DNA topoisomerase II binding protein 1) | 0 | 11.2 | 12.7 | 9.6 | inactive |
| LOC340900 | 0 | 2.9 | 7.2 | -1.3 | inactive |
| MRPS16 (mitochondrial ribosomal protein S16) | 0 | 1.7 | 0 | 3.4 | inactive |
| LOC440056 | 1 | 20.6 | 2.6 | 38.6 | inactive |
| TCEAL6 (transcription elongation factor A like 6) | 0 | 7 | 8.1 | 5.8 | inactive |
| SEPTIN7P11 (septin 7 pseudogene 11) | 0 | 8.3 | 4 | 12.7 | inactive |
| MMUT (methylmalonyl-CoA mutase) | 0 | -1.5 | -3.7 | 0.7 | inactive |
| NELFE (negative elongation factor complex member E) | 1 | 6.4 | 4.7 | 8.1 | inactive |
| LRRC25 (leucine rich repeat containing 25) | 0 | 2.2 | 5.3 | -0.9 | inactive |
| BTG3 (BTG anti-proliferation factor 3) | -1 | -1.9 | 8.5 | -12.4 | inactive |
| PTPRS (protein tyrosine phosphatase receptor type S) | 1 | 16.3 | 11.9 | 20.8 | inactive |
| LOC389427 | 0 | -4 | 1.9 | -9.9 | inactive |
| APOO (apolipoprotein O) | 0 | -1.4 | -2.8 | 0.1 | inactive |
| ARR3 (arrestin 3) | 1 | 8.2 | 26.4 | -10 | inactive |
| FIS1 (fission, mitochondrial 1) | 0 | -9 | -11.8 | -6.1 | inactive |
| PRPF6 (pre-mRNA processing factor 6) | 0 | -5.4 | -9.9 | -0.8 | inactive |
| PLCXD1 | 0 | -1.1 | 6.4 | -8.5 | inactive |
| THNSL2 (threonine synthase like 2) | 0 | 3.5 | -6 | 12.9 | inactive |
| MTFP1 (mitochondrial fission process 1) | 1 | 13.1 | 1.2 | 25 | inactive |
| HSPB3 (heat shock protein family B (small) member 3) | 0 | 5.9 | 14.4 | -2.6 | inactive |
| TNFRSF21 (TNF receptor superfamily member 21) | 0 | -2.3 | -12 | 7.3 | inactive |
| STARD3 (StAR related lipid transfer domain containing 3) | 0 | -0.7 | 3.3 | -4.8 | inactive |
| POU3F3 (POU class 3 homeobox 3) | 0 | 16.9 | 20.7 | 13.1 | inactive |
| TARDBP (TAR DNA binding protein) | 0 | 9.1 | 15.4 | 2.7 | inactive |
| LOC341356 | 0 | 8.2 | 3.9 | 12.4 | inactive |
| MCFD2 | 1 | 10.3 | 18 | 2.5 | inactive |
| SLC20A2 | 1 | 12.1 | 20.7 | 3.5 | inactive |
| LOC91461 | 1 | 12.1 | 20.3 | 4 | inactive |
| LOC441165 | -1 | -5.3 | 0.4 | -11.1 | inactive |
| FLJ42393 | 0 | 6.1 | 4.7 | 7.5 | inactive |
| REG1A (regenerating family member 1 alpha) | 0 | 4.4 | -8.6 | 17.3 | inactive |
| ELOVL3 (ELOVL fatty acid elongase 3) | 0 | 3.5 | 0.4 | 6.7 | inactive |
| PFKL (phosphofructokinase, liver type) | 0 | -2.2 | -5.5 | 1.2 | inactive |
| RGS14 (regulator of G protein signaling 14) | 0 | 6.4 | 15.7 | -2.9 | inactive |
| LOC402279 (glutamate metabotropic receptor 8 pseudogene) | 0 | 8.2 | 7.9 | 8.5 | inactive |
| ZNF550 (zinc finger protein 550) | 0 | -1.1 | -3.6 | 1.4 | inactive |
| TMEM64 (transmembrane protein 64) | 0 | 5.6 | 8.4 | 2.8 | inactive |
| CCDC186 (coiled-coil domain containing 186) | 0 | 7.8 | 12 | 3.6 | inactive |
| RBM45 (RNA binding motif protein 45) | 0 | -4.6 | -4.5 | -4.6 | inactive |
| TMEM185A (transmembrane protein 185A) | 0 | 3.2 | 7.5 | -1.1 | inactive |
| HSD17B3 (hydroxysteroid 17-beta dehydrogenase 3) | -1 | -13.4 | -15.9 | -10.9 | inactive |
| CREB3L1 (cAMP responsive element binding protein 3 like 1) | 0 | 14 | 8.3 | 19.7 | inactive |
| AMELY (amelogenin Y-linked) | 1 | 30.5 | 39.8 | 21.3 | inactive |
| OR3A2 (olfactory receptor family 3 subfamily A member 2) | 0 | 2.3 | 4.1 | 0.4 | inactive |
| FAM3B (FAM3 metabolism regulating signaling molecule B) | 0 | -4.8 | 7.2 | -16.7 | inactive |
| LOC441342 | 0 | 4.3 | 4.8 | 3.8 | inactive |
| TLR9 (toll like receptor 9) | 0 | 10.3 | -3.1 | 23.7 | inactive |
| UBE2O (ubiquitin conjugating enzyme E2 O) | 0 | 10.1 | 13.7 | 6.4 | inactive |
| CNTD1 (cyclin N-terminal domain containing 1) | 1 | -4.9 | 15.4 | -25.1 | inactive |
| POLQ (DNA polymerase theta) | -1 | -10.8 | -21.6 | -0.1 | inactive |

7 neighbouring records from above, for reference:
| gene | two-siRNA summed score (-2 to +2) | mean protection from cisplatin (shift in death) (%) | protection from cisplatin (shift in death), siRNA C (%) | protection from cisplatin (shift in death), siRNA D (%) | activity call |
| --- | --- | --- | --- | --- | --- |
| MTFP1 (mitochondrial fission process 1) | 1 | 13.1 | 1.2 | 25 | inactive |
| HSPB3 (heat shock protein family B (small) member 3) | 0 | 5.9 | 14.4 | -2.6 | inactive |
| TNFRSF21 (TNF receptor superfamily member 21) | 0 | -2.3 | -12 | 7.3 | inactive |
| STARD3 (StAR related lipid transfer domain containing 3) | 0 | -0.7 | 3.3 | -4.8 | inactive |
| POU3F3 (POU class 3 homeobox 3) | 0 | 16.9 | 20.7 | 13.1 | inactive |
| TARDBP (TAR DNA binding protein) | 0 | 9.1 | 15.4 | 2.7 | inactive |
| LOC341356 | 0 | 8.2 | 3.9 | 12.4 | inactive |
